Negatives hold for the conditions tested. At least one verdict rests on a figure or table, not on a statement of the authors.
Target: FOXO3-DBD (Homo sapiens, UniProt O43524)
Test: EMSA
Details: FAM-EMSA: 20 mM Tris pH 7.5, 100 mM NaCl, 1 mM EDTA, 5% glycerol, 30 min RT, 5% PAGE 0.5x TBE, recombinant protein, residues 156-269, protein details: N-terminal GST, His (GST-His-purified)

Amino acid sequences for entries named in this document (tags omitted). Residues count along the entry.
UniProt O43524, 156-269: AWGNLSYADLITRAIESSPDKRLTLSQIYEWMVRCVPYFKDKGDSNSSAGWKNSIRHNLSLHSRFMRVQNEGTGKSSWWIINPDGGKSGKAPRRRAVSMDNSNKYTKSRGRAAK

AGCAAAGTTGTTTTTGATAATG (double strand) [FoxP3-FAM]
binding result (60 uM carbenoxolone (CBX)): no binding

AGCAAAGTTGGGGTTGATAATG (double strand) [FoxP3-mut-FAM]
binding result (1 uM protein, 100 nM DNA): no binding
